Results published in patent US4897344A, “Method of hardening gelatin” (Fuji Photo Film Co., Ltd., priority 1987, dated 1990).

Key:
[1] = Image evaluation of plate-making film after storage (Example 4); details: room temperature; Compound 4 3 wt % with respect to gelatin
Description: A silver nitrate solution and a halide solution consisting of sodium chloride and potassium bromide were added using the double jet method to an aqueous gelatin solution which was being maintained at 45° C., and a monodisperse, cubic silver chlorobromide emulsion (70 mol % Cl) of which the average grain size was 0.20μ was obtained. At this time 7×10^-8 mol per mol of silver of triammonium hexachlororhodium and 3×10^-7 mol per mol of silver of tripotassium hexachloroiridium were added. The emulsion was washed with water and de-salted in the usual manner and then chemically sensitized by the addition of sodium thiosulfate and chloroauric acid and an emulsion was obtained. An emulsion layer coating solution was then prepared by adding (D-1) as a sensitizing dye, 4-hydroxy-6-methyl-1,3,3a,7-tetrazaindene and 1-phenyl-5-mercaptotetrazole as stabilizers and a poly(ethylacrylate) dispersion, 100 mg per mol of silver of Compound (4), Compound (1), and moreover 3 wt % with respect to the gelatin of Compound 4 of this invention as a film hardening agent to this emulsion.
A protective layer coating solution was obtained by adding poly(methyl methacrylate) as a matting agent and Compounds (2) and (3) as coating promotors to a gelatin solution. [drawing 12]
An emulsion layer and a protective layer were coated in the above order from the support on a polyethyleneterephthalate support. […]

acid treated gelatin = test: Hardening of gelatin microcapsule walls, capsule quality (Example 5); details: 100 parts of 10% aqueous solution of Compound 9
Description: Next 30 parts of diisopropylbiphenyl in which 2% of crystal violet lactone (CVL) had been dissolved was added to the colloidal solution and stirred vigorously to form an oil in water emulsion, and the stirring was stopped when the size of the oil droplets was 6 to 10μ. Next 250 parts of warm water at 45° C. was added to the emulsion. The pH was then adjusted to 4.5 by titration with 50% acetic acid while stirring the mixture. After stirring at this temperature for 15 minutes, the container was cooled from the outside, and the colloid walls which had accumulated were gelled and solidified. The stirring was continued and, when the liquid temperature reached 15° C., 100 parts of a 10% aqueous solution of Compound 9 of this invention was added as a hardening agent. When the liquid temperature reached 10° C. the dropwise addition of a 10% aqueous solution of caustic soda was started and the pH was finally raised to 10.
To parts of a 15% aqueous solution of poly(vinyl alcohol) and 0.5 parts of starch were added to 10 parts of the capsule liquid obtained in this way to form a coating liquid, and this was coated with a coating rod onto a top paper in such a way as to provide a solid fraction coated weight of 20 grams per square meter. […]

| SMILES | image quality / photographic performance, stored 3 days [1] | image quality / photographic performance, stored 7 days [1] | coloration of capsules (acid treated gelatin) | heat resistance of capsules (acid treated gelatin) |
| --- | --- | --- | --- | --- |
| C=CS(=O)(=O)CC(=O)NC(NC(=O)CS(=O)(=O)C=C)c1ccc(OCCCS(=O)(=O)O)cc1 [Comparative Compound (II)] | only the sample which had been stored for 7 days had a good photographic performance | good photographic performance | – | – |
| C=CS(=O)(=O)C(COc1ccc(S(=O)(=O)O)c2ccccc12)S(=O)(=O)C=C [Compound 9] | – | – | no coloration | resistant to heat |
